No constants are given. Whether binding was seen depends on the method and setting. Some entries that bind do so weakly or less than the wild type.
What was measured:
[1] = target: SEMG1 recombinant protein (semenogelin-1) (human) (UniProt P04279); test: ELISA; full-length SEMG1 coated as positive control, antibody at 2.5 ug/mL
[2] = target: T1, BSA-S1 polypeptide of SEMG1 (human); test: ELISA on coated peptide; antibody at 2.5 ug/mL; positive if OD ratio to blank >3
T1 sequence (peptide, printed with the prefix 'BSA-' at the N-terminus (BSA conjugate)): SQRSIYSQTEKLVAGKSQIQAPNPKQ

The chains behind the UniProt entries cited, without tags or fusion partners. Residues count along the entry.
UniProt P04279, residues 24-462: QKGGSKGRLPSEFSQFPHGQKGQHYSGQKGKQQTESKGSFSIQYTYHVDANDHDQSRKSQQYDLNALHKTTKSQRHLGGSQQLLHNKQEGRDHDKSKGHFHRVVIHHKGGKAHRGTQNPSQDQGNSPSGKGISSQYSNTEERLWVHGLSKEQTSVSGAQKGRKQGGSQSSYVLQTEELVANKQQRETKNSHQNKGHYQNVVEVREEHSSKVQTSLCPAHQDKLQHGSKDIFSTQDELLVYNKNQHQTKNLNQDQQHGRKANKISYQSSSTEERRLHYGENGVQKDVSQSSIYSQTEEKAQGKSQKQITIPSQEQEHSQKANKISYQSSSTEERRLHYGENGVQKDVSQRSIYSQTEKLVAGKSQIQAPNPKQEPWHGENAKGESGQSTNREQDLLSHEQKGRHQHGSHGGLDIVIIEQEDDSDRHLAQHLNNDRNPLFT

B1: 4-D9-G6-H6 (antibody, V domains shown)
VH: QIQLVQSGPELKKPGETVKISCKASGYTFTNYGMNWVKQSPGKGLKWMGGINTNTGEPTYNEEFKGRFAFSLETSARTAYLRINNLKNEDTATYFCTRSVFALDYWGQGTSVTVSS
VL: DVVMTQTPLSLPVSLGDQASISCRSSQSLVHSNGNTYLQWYLQKPGQSPKLLIYKVSNRFSGVPDRFSGSGSGTDFTLKISRVEAEDLGVYFCSQSKHVPRTFGGGTKLEIK
- binding [1]: binds
- binding [2]: binds

From US20250136711A1 (SHANGHAI BIOTROY BIOTECHNIQUE, published 2025)
